From publication doi:10.1101/2022.06.01.494432
No constants are given. Whether binding was seen depends on the method and setting. In cells and extracts the contact can be indirect. Some results given as binding are weak or reduced against the parent protein; the word gives no strength. Tags and fused reporters may be left off the sequences shown.

The chains behind the UniProt entries cited, without tags or fusion partners.
UniProt Q9Z0W5: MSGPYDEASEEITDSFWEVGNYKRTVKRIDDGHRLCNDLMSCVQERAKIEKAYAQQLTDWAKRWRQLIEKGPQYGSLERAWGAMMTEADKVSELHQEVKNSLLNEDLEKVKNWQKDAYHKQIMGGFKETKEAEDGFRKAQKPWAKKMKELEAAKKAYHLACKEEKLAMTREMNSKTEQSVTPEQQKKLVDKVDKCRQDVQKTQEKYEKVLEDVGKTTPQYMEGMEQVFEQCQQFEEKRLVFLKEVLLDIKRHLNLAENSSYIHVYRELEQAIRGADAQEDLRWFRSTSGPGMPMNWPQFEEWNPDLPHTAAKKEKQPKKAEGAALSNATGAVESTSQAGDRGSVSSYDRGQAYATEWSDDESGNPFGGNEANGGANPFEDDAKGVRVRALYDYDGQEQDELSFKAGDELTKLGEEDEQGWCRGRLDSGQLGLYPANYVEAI

Target: T1, GST-Dyn1xA-PRM (wild-type rat Dyn1xA C-terminus, residues 746-864) (rat) (UniProt P21575)
T1 sequence: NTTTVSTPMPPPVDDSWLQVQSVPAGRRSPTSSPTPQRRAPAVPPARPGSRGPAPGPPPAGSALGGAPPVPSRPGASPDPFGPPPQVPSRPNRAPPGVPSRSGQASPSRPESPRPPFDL
Assay: pull-down

binding: binds
Substance: Syndapin 1 (endogenous, rat brain nerve terminals) (from UniProt Q9Z0W5 1-441)
